Reference: doi:10.1101/571315
No constants are given. Whether binding was seen depends on the method and setting. Binding seen in cells or lysates may run through a third protein. Some binding calls cover weakened binding; strength is not graded here.

Amino acid sequences for entries named in this document (tags omitted).
UniProt P39880: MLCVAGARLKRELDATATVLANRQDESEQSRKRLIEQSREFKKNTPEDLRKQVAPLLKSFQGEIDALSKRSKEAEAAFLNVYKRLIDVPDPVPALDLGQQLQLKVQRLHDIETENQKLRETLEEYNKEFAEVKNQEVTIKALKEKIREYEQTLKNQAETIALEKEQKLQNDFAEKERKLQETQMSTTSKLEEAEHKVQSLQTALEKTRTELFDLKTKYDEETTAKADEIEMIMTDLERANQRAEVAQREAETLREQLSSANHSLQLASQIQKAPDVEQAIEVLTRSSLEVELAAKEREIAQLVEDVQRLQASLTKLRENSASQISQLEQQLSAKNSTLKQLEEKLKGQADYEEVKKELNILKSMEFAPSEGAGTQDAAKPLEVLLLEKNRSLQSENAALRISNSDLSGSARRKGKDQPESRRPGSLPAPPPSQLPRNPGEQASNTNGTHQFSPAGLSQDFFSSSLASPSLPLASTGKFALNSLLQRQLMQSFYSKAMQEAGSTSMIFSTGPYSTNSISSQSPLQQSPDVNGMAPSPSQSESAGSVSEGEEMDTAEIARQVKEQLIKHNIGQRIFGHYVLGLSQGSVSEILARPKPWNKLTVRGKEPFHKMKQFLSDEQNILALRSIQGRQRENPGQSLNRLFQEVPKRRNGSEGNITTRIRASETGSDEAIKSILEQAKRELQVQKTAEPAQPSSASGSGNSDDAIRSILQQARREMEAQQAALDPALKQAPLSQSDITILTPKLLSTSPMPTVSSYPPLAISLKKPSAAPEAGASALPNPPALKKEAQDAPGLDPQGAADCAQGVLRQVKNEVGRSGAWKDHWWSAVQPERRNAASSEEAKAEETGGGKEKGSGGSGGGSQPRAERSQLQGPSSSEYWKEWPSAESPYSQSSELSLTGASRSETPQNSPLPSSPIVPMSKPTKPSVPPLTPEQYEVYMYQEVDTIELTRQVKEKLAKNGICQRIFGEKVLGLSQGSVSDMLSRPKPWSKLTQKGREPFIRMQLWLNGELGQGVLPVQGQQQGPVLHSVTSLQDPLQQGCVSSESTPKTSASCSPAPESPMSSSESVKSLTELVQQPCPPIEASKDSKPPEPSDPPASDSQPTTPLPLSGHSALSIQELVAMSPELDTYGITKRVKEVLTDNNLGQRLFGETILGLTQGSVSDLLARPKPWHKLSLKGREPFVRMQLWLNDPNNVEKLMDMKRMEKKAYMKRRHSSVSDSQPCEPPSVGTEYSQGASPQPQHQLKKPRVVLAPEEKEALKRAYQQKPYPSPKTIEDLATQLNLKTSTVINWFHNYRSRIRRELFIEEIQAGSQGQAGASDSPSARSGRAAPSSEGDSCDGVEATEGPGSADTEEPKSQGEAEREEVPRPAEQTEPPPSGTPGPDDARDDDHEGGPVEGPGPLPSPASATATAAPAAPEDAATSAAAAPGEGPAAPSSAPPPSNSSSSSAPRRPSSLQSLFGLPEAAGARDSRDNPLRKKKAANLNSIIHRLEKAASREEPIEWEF
UniProt Q04206: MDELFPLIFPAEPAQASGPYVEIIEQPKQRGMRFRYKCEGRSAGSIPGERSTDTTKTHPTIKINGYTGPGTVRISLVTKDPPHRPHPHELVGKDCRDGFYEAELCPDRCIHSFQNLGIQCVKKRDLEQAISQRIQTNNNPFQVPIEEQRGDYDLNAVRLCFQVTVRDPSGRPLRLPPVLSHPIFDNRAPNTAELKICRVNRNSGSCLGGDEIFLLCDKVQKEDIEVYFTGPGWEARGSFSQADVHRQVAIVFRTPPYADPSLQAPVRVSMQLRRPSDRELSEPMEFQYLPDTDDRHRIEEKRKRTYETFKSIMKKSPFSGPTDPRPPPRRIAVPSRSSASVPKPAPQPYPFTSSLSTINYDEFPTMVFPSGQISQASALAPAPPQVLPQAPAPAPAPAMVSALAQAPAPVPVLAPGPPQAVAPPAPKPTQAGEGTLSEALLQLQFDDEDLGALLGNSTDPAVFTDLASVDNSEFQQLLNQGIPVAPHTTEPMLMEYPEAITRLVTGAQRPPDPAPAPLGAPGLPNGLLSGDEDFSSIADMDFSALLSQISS

T1: NF-κB p100/52 (human (endogenous in synovial fibroblasts)) (UniProt Q00653)
T1 sequence: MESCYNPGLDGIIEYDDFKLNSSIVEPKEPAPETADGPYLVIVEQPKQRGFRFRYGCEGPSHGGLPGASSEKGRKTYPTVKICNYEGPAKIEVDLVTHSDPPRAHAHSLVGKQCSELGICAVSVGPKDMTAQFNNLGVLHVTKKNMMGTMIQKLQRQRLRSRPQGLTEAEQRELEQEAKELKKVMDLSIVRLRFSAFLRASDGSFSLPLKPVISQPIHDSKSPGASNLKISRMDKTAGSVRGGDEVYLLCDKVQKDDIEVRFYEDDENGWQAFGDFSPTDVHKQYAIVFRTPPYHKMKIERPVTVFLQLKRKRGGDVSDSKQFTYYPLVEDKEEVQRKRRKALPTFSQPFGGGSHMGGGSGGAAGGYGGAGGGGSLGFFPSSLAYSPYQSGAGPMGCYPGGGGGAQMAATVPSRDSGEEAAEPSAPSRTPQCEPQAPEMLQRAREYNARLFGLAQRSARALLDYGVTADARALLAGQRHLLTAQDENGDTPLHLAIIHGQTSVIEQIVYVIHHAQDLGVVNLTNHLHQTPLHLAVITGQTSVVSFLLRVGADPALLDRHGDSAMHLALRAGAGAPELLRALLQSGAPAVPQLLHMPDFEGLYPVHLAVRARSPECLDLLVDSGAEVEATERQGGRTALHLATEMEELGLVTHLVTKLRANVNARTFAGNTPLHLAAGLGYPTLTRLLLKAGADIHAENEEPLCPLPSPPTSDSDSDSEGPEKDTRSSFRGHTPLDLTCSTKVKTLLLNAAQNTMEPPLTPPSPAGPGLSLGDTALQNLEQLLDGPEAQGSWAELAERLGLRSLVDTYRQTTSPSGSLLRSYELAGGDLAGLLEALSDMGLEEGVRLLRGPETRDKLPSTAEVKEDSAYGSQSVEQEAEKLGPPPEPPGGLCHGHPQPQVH

B1: atypical IκB factor IκBζ (protein, UniProt Q9BYH8 1-718)
chain: MIVDKLLDDSRGGEGLRDAAGGCGLMTSPLNLSYFYGASPPAAAPGACDASCSVLGPSAPGSPGSDSSDFSSASSVSSCGAVESRSRGGARAERQPVEPHMGVGRQQRGPFQGVRVKNSVKELLLHIRSHKQKASGQAVDDFKTQGVNIEQFRELKNTVSYSGKRKGPDSLSDGPACKRPALLHSQFLTPPQTPTPGESMEDVHLNEPKQESSADLLQNIINIKNECSPVSLNTVQVSWLNPVVVPQSSPAEQCQDFHGGQVFSPPQKCQPFQVRGSQQMIDQASLYQYSPQNQHVEQQPHYTHKPTLEYSPFPIPPQSPAYEPNLFDGPESQFCPNQSLVSLLGDQRESENIANPMQTSSSVQQQNDAHLHSFSMMPSSACEAMVGHEMASDSSNTSLPFSNMGNPMNTTQLGKSLFQWQVEQEESKLANISQDQFLSKDADGDTFLHIAVAQGRRALSYVLARKMNALHMLDIKEHNGQSAFQVAVAANQHLIVQDLVNIGAQVNTTDCWGRTPLHVCAEKGHSQVLQAIQKGAVGSNQFVDLEATNYDGLTPLHCAVIAHNAVVHELQRNQQPHSPEVQELLLKNKSLVDTIKCLIQMGAAVEAKDRKSGRTALHLAAEEANLELIRLFLELPSCLSFVNAKAYNGNTALHVAASLQYRLTQLDAVRLLMRKGADPSTRNLENEQPVHLVPDGPVGEQIRRILKGKSIQQRAPPY

Assays:
Test in all cases: co-IP
[1] = biological target: cut like homeobox 1 (CUX1) (human (endogenous in synovial fibroblasts)) (UniProt P39880)
[2] = biological target: NF-κB p65 (human (endogenous in synovial fibroblasts)) (UniProt Q04206)
[3] = biological target: T1, NF-κB p100/52 (human (endogenous in synovial fibroblasts))

Molecule	binding [1]	binding [2]	binding [3]
NF-κB p65 (from UniProt Q04206 1-551)	binds	–	–
B1	–	binds	binds
